From patent publication US11510962B2 (Ferring B.V., priority 2012, dated 2022)

Assay: solution-phase peptide synthesis
Conditions: whole synthesis, acetate (4.5 to 10 wt. % acetic acid)

## degarelix
Run 1
  final HPLC purity: 295%
Run 2
  final HPLC purity: 297.5%
